# PubChem BioAssay AID1159578, Peter MacCallum Cancer Centre – 2015
# Screen: 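Knock-downs that alter how fast lymphatic endothelial cells migrate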 (primary screen)
# System: human lymphatic endothelial cells
# Knock-down reagent: siRNA pool against human genes, 40 nM
# Duration: 48 h after transfection
# Read-out: 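Cells stained with dye and imaged after a scratch; covered wound area and nuclei counted, duplicates averaged, migration set against mock wells and turned into a robust z-score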
# Reading the numbers: migration robust z-score: higher = faster migration into the scratch; migration relative to mock: higher = more scratch area covered than mock; nuclei per well: higher = more cells in the well
# Call rule: 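Migration changed when robust z exceeds 2 or falls below -2 and mean nuclei number is at least 3300; otherwise not called changed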
# Calls: active = migration changed; inactive = no migration change, or too few cells
# The whole screen tested about 18,000 reagents; this is a part drawn at random. About 1,030 of them (5.7%) were called active. 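Inactive calls also include pools with fewer than 3300 nuclei, whose migration was not assessed.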 Raw values are not corrected between plates. A number with no mark means an inactive call.
Gene,migration robust z-score,migration class with cell-count check,migration relative to mock,"nuclei per well, duplicate mean"
H2BC1,1.48,migration z between -2 and 2; enough cells,1.27,6876
KRT73,-2.13 (active),migration z below -2; enough cells,0.33,5790
DTYMK,-1.84,migration z between -2 and 2; enough cells,0.45,3409
TMEM234,-0.26,migration z between -2 and 2; enough cells,0.82,7158
SAP30BP,0.5,migration z between -2 and 2; enough cells,0.9,6742
PKNOX2,-0.16,migration z between -2 and 2; enough cells,0.84,5884
TECR,1.14,migration z between -2 and 2; enough cells,1.02,5734
SCN4B,0.28,migration z between -2 and 2; enough cells,0.86,6116
MYO1C,0.74,migration z between -2 and 2; enough cells,1.08,6262
NDUFS3,-1.5,migration z between -2 and 2; enough cells,0.52,4166
YWHAZ,0.78,migration z between -2 and 2; enough cells,0.96,6012
ELAVL4,-1.6,migration z between -2 and 2; enough cells,0.47,5200
NCKAP5,1.14,migration z between -2 and 2; enough cells,1.18,6812
ODF4,0.78,migration z between -2 and 2; enough cells,1.08,6435

The list goes on (3 carried over from the part before).
Gene,migration robust z-score,migration class with cell-count check,migration relative to mock,"nuclei per well, duplicate mean"
ELAVL4,-1.6,migration z between -2 and 2; enough cells,0.47,5200
NCKAP5,1.14,migration z between -2 and 2; enough cells,1.18,6812
ODF4,0.78,migration z between -2 and 2; enough cells,1.08,6435
CARD11,1.25,migration z between -2 and 2; enough cells,1.04,4763
ARSG,-1.3,migration z between -2 and 2; enough cells,0.56,4262
C16orf90,1.64,migration z between -2 and 2; enough cells,1.31,7092
IFI6,-1.1,migration z between -2 and 2; enough cells,0.6,5560
ZNF805,-0.04,migration z between -2 and 2; enough cells,0.88,6026
TMCO6,-0.39,migration z between -2 and 2; enough cells,0.78,4468
GAA,1.14,migration z between -2 and 2; enough cells,1.03,6518
APAF1,-0.8,migration z between -2 and 2; enough cells,0.65,5916
BRMS1,0.72,migration z between -2 and 2; enough cells,1.07,6470
